This test addresses Smad5 (mouse (endogenous in C3H10T1/2)) (UniProt P97454). Kind of test: co-IP; C3H10T1/2 cell lysate (50 mM Tris pH 7.4, 150 mM NaCl, 1 mM EDTA, 1% Nonidet P-40, 10% glycerol, 0.5 mM DTT), precleared with IgG-agarose; IP with anti-Smad5 antibody on Protein G Plus-Agarose at 4°C overnight, six washes; Western blot with anti-Axin1 antibody; both proteins endogenous.

The chains behind the UniProt entries cited, without tags or fusion partners.
UniProt P97454: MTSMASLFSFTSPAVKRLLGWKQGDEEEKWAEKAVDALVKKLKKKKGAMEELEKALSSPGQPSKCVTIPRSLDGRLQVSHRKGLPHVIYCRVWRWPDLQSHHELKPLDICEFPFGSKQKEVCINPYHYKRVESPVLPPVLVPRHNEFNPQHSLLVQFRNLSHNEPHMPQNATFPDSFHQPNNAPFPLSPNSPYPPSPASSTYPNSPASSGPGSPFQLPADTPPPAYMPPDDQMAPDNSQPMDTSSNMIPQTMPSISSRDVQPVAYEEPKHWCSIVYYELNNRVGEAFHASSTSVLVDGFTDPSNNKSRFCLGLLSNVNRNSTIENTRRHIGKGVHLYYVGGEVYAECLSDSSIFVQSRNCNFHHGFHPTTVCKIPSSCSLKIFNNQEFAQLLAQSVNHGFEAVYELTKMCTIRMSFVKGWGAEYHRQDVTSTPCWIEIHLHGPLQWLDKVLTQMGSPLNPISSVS
UniProt O35625: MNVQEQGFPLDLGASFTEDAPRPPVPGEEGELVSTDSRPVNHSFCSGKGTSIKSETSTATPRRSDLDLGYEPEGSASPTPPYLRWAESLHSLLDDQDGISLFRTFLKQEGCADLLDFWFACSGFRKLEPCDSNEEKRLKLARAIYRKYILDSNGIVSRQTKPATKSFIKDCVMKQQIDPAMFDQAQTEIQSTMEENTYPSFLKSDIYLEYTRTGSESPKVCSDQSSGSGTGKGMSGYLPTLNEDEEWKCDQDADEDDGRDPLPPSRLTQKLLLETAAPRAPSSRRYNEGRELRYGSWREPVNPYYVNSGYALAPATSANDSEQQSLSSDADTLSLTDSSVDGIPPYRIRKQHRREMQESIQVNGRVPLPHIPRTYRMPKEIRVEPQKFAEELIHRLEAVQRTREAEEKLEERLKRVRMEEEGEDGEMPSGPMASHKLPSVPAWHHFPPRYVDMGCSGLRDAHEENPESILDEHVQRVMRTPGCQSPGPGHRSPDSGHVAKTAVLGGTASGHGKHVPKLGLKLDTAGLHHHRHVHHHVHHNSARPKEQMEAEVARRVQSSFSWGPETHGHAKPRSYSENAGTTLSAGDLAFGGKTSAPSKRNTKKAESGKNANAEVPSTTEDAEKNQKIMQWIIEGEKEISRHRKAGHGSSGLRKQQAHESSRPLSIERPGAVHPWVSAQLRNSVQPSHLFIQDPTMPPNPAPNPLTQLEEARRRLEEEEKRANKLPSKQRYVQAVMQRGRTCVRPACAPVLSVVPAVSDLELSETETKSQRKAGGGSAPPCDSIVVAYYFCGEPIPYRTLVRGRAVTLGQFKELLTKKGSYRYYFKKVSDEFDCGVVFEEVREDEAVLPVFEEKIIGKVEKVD

Results are given in words; binding and its absence hold for the method and conditions named. Binding seen in cells or lysates may run through a third protein. Some binding calls cover weakened binding; strength is not graded here.

In the case of Axin1 (from UniProt O35625 1-863), the binding entry is “binds”.
